Assay results as given in US5010174A, “Novel calcitonin derivative and salt thereof” (Mitsubishi Petrochemical Co., Ltd., priority 1987, dated 1991).
At least one peptide structure holds a part that was inferred or is arguable (an end, a ring closure or a residue). Bridge positions count the residues as written; N and C are the ends. Square brackets hold non-standard residues; d marks the D form. Peptide text beside a SMILES is read from it. * marks the point of attachment. pGlu = O=C1CC[C@@H](C(=O)O)N1; X1 = O=C1CCCC(C(=O)*)N1; Acm = CC(=O)NC*; Cam = NC(=O)C*

Experiments:
[1] = comparison values; Table 9 footnotes give literature sources; cited from earlier work
[2] = Biological activity (calcitonin activity, MRC U/mg), assayed by the method of Japanese Provisional Patent Publication No. 123500/1985; type: in vivo; conditions: for biological activity, in words, compared with Example 1: measured as in Example 1; for biological activity: method of Japanese Provisional Patent Publication No. 123500/1985
Method: The crude (Oct^1, Cys(CA)^7)-CCT obtained was dissolved in a 1 M acetic acid (5 mg/ml) and purified by the reverse phase high performance liquid chromatography. Chemcopack ODS-H (trade name, .phi.: 10 mm×250 mm) column produced by Chemco Co. was used, with the eluents employed being water (100) - 10% TFA (1) for the eluent A and water (40)-acetonitrile (60) - 10% TFA (1) for the eluent B, and the elution was effected under the linear concentration gradient from the eluent A to the eluent B. Here, the numerals within bracckets represent volume ratios. The fraction corresponding to (Oct^1, Cys(CA)^7)-CCT was collected and lyophilized to obtain 2.8 mg of white powder. The biological activity of the white powder obtained was assayed according to the method as described in Japanese Provisional Patent Publication No. 123500/1985.

With `CC(C)C[C@H](NC(=O)[C@H](CCCCN)NC(=O)CNC(=O)[C@H](CC(C)C)NC(=O)[C@@H](NC(=O)[C@@H]1CSSC[C@H](N)C(=O)N[C@@H](C)C(=O)N[C@@H](CO)C(=O)N[C@@H](CC(C)C)C(=O)N[C@@H](CO)C(=O)N[C@@H]([C@@H](C)O)C(=O)N1)C(C)C)C(=O)N[C@@H](CO)C(=O)N[C@@H](CCC(N)=O)C(=O)N[C@@H](CCC(=O)O)C(=O)N[C@@H](CC(C)C)C(=O)N[C@@H](Cc1c[nH]cn1)C(=O)N[C@@H](CCCCN)C(=O)N[C@@H](CC(C)C)C(=O)N[C@@H](CCC(N)=O)C(=O)N[C@H](C(=O)N[C@@H](Cc1ccc(O)cc1)C(=O)N1CCC[C@H]1C(=O)N[C@@H](CCCNC(=N)N)C(=O)N[C@H](C(=O)N[C@@H](CC(=O)O)C(=O)N[C@H](C(=O)NCC(=O)N[C@@H](C)C(=O)NCC(=O)N[C@H](C(=O)N1CCC[C@H]1C(N)=O)[C@@H](C)O)C(C)C)[C@@H](C)O)[C@@H](C)O` [CCT, chicken calcitonin] (H-CASLSTCVLGKLSQELHKLQTYPRTDVGAGTP-NH2; disulfide 1-7) as the compound, how does the “biological activity (reference peptides)” value [1] read?
Its value is 4500 MRC U/mg.

Which “biological activity, in words, compared with Example 1” value [2] does the source give for `CC(C)C[C@H](NC(=O)[C@H](CCCCN)NC(=O)CNC(=O)[C@H](CC(C)C)NC(=O)[C@@H](NC(=O)[C@H](CSCC(N)=O)NC(=O)[C@@H](NC(=O)[C@H](CO)NC(=O)[C@H](CC(C)C)NC(=O)[C@H](CO)NC(=O)[C@H](C)NC(=O)C1CCCC(=O)N1)[C@@H](C)O)C(C)C)C(=O)N[C@@H](CO)C(=O)N[C@@H](CCC(N)=O)C(=O)N[C@@H](CCC(=O)O)C(=O)N[C@@H](CC(C)C)C(=O)N[C@@H](Cc1c[nH]cn1)C(=O)N[C@@H](CCCCN)C(=O)N[C@@H](CC(C)C)C(=O)N[C@@H](CCC(N)=O)C(=O)N[C@H](C(=O)N[C@@H](Cc1ccc(O)cc1)C(=O)N1CCC[C@H]1C(=O)N[C@@H](CCCNC(=N)N)C(=O)N[C@H](C(=O)N[C@@H](CC(=O)O)C(=O)N[C@H](C(=O)NCC(=O)N[C@@H](C)C(=O)NCC(=O)N[C@H](C(=O)N1CCC[C@H]1C(N)=O)[C@@H](C)O)C(C)C)[C@@H](C)O)[C@@H](C)O` (some centres unmarked) [(Kpc^1, Cys(CA)^7)-CCT] (X1-ASLSTC(Cam)VLGKLSQELHKLQTYPRTDVGAGTP-NH2) here?
The value was “substantially equal to those of (Oct^1, Cys(CA)^7)-CCT of Example 1”.

Which biological activity [2] does the source give for `CC(=O)NCSC[C@H](NC(=O)[C@@H](NC(=O)[C@H](CO)NC(=O)[C@H](CC(C)C)NC(=O)[C@@H](NC(=O)[C@H](C)NC(=O)[C@@H]1CCC(=O)N1)[C@@H](C)O)[C@@H](C)O)C(=O)N[C@H](C(=O)N[C@@H](CC(C)C)C(=O)NCC(=O)N[C@@H](CCCCN)C(=O)N[C@@H](CC(C)C)C(=O)N[C@@H](CO)C(=O)N[C@@H](CCC(N)=O)C(=O)N[C@@H](CCC(=O)O)C(=O)N[C@@H](CC(C)C)C(=O)N[C@@H](Cc1c[nH]cn1)C(=O)N[C@@H](CCCCN)C(=O)N[C@@H](CC(C)C)C(=O)N[C@@H](CCC(N)=O)C(=O)N[C@H](C(=O)N[C@@H](Cc1ccc(O)cc1)C(=O)N1CCC[C@H]1C(=O)N[C@@H](CCCNC(=N)N)C(=O)N[C@H](C(=O)N[C@@H](CC(=O)O)C(=O)N[C@H](C(=O)NCC(=O)N[C@@H](C)C(=O)NCC(=O)N[C@H](C(=O)N1CCC[C@H]1C(N)=O)[C@@H](C)O)C(C)C)[C@@H](C)O)[C@@H](C)O)C(C)C` [(pGlu^1, Thr^3, Cys(Acm)^7)-CCT] ([pGlu]ATLSTC(Acm)VLGKLSQELHKLQTYPRTDVGAGTP-NH2) here?
Its biological activity is 7500 MRC U/mg.

With `CC(C)C[C@H](NC(=O)[C@H](CCCCN)NC(=O)CNC(=O)[C@H](CC(C)C)NC(=O)[C@@H](NC(=O)[C@@H]1CSSC[C@H](N)C(=O)N[C@@H](CO)C(=O)N[C@@H](CC(N)=O)C(=O)N[C@@H](CC(C)C)C(=O)N[C@@H](CO)C(=O)N[C@@H]([C@@H](C)O)C(=O)N1)C(C)C)C(=O)N[C@@H](CO)C(=O)N[C@@H](CCC(N)=O)C(=O)N[C@@H](CCC(=O)O)C(=O)N[C@@H](CC(C)C)C(=O)N[C@@H](Cc1c[nH]cn1)C(=O)N[C@@H](CCCCN)C(=O)N[C@@H](CC(C)C)C(=O)N[C@@H](CCC(N)=O)C(=O)N[C@H](C(=O)N[C@@H](Cc1ccc(O)cc1)C(=O)N1CCC[C@H]1C(=O)N[C@@H](CCCNC(=N)N)C(=O)N[C@H](C(=O)N[C@@H](CC(=O)O)C(=O)N[C@H](C(=O)NCC(=O)N[C@@H](C)C(=O)NCC(=O)N[C@H](C(=O)N1CCC[C@H]1C(N)=O)[C@@H](C)O)C(C)C)[C@@H](C)O)[C@@H](C)O` [natural type ECT, eel calcitonin, reference compound] (H-CSNLSTCVLGKLSQELHKLQTYPRTDVGAGTP-NH2; disulfide 1-7) as the compound, how does the biological activity [2] read?
Its biological activity is 4500 MRC U/mg.

For `CC(C)C[C@H](NC(=O)[C@H](CCCCN)NC(=O)CNC(=O)[C@H](CC(C)C)NC(=O)[C@@H](NC(=O)[C@H](CSCC(N)=O)NC(=O)[C@@H](NC(=O)[C@H](CO)NC(=O)[C@H](CC(C)C)NC(=O)[C@H](CO)NC(=O)[C@H](C)NC(=O)[C@@H]1CCC(=O)N1)[C@@H](C)O)C(C)C)C(=O)N[C@@H](CO)C(=O)N[C@@H](CCC(N)=O)C(=O)N[C@@H](CCC(=O)O)C(=O)N[C@@H](CC(C)C)C(=O)N[C@@H](Cc1c[nH]cn1)C(=O)N[C@@H](CCCCN)C(=O)N[C@@H](CC(C)C)C(=O)N[C@@H](CCC(N)=O)C(=O)N[C@H](C(=O)N[C@@H](Cc1ccc(O)cc1)C(=O)N1CCC[C@H]1C(=O)N[C@@H](CCCNC(=N)N)C(=O)N[C@H](C(=O)N[C@@H](CC(=O)O)C(=O)N[C@H](C(=O)NCC(=O)N[C@@H](C)C(=O)NCC(=O)N[C@H](C(=O)N1CCC[C@H]1C(N)=O)[C@@H](C)O)C(C)C)[C@@H](C)O)[C@@H](C)O` [(pGlu^1, Cys(CA)^7)-CCT] ([pGlu]ASLSTC(Cam)VLGKLSQELHKLQTYPRTDVGAGTP-NH2), which “biological activity, in words, compared with Example 1” value [2] is on record?
Its value is “substantially equal to those of (Oct^1, Cys(CA)^7)-CCT of Example 1”.
